{
  "source": "patent US4670456A",
  "about": "“4-Aminocarbonylaminomethyl-1-benzylpyrrolidin-2-ones as nootropic agents and as agents for treating cerebral insufficiency” (Boehringer Ingelheim KG, priority 1984, dated 1987)",
  "key": {"[1]": {"tested_on": "mice", "experiment": "Hypoxia Tolerance Test", "assay_type": "in vivo", "details": "100 mg/kg p.o., 96.5% nitrogen, 3.5% oxygen, effective: at most 1-2 treated animals died when 7-8 untreated had died", "method": "2. Hypoxia Tolerance Test\nIn the method employed, mice which are untreated controls or which have been pretreated with the test substance (p.o.) are placed in respective sealed chambers which are filled with a gas mixture consisting of 96.5% nitrogen and 3.5% oxygen. The observer waits until 7-8 of the untreated animals have died. This occurs within 6-7 minutes. If the test substance is effective, at most 1-2 of the treated animals may have died."}, "[2]": {"target": "Muscarine-Cholinergic Receptor (Hippocampus)", "experiment": "Muscarine-Cholinergic Receptor Binding, hippocampus", "set-up": "species or system rat", "method": "The IC50 values were calculated in the manner described by Y. C."}, "[3]": {"target": "muscarine-cholinergic receptor structures in the rat cortex", "experiment": "Muscarine-Cholinergic Receptor Binding, cortex", "method": "Also as described in Example 8, the compounds tested bound with high affinity to muscarine-cholinergic receptor structures in the rat cortex.\n3. Muscarine-Cholinergic Receptor Binding\nThis test was performed according to the methods described by M. Watson et al., Life Sci., 32, 3001-3011 (1983) and R. Hammer et al., Nature, 283, 90=92 (1980). The IC50 values were calculated in the manner described by Y. C. Cheng et al., Biochemical Pharmacology, 22, 3099-3108 (1973)."}},
  "note": "At least one structure is not confirmed: it was looked up by name or label, or the drawing left a doubt.",
  "data": [
    {"smiles": "CN1CCN(C(=O)NCC2CC(=O)N(Cc3ccccc3)C2)CC1", "note": "(stereo not drawn) [Example 1, 4-(N-Methylpiperazinyl-carbonylaminomethyl)-1-benzylpyrrolidin-2-one]", "values": [
      {"measurement": "Hypoxia Tolerance", "setting": "[1]", "result": "effective"},
      {"measurement": "IC50", "setting": "[2]", "result": 7.05, "unit": "µM"},
      {"measurement": "IC50", "setting": "[3]", "result": 2.76, "unit": "µM"}
    ]}
  ]
}
